This is an account of results in article PMC12470938.

For this data set, the target named is T1, Rme1 (Trichoderma reesei) (UniProt G0RR27).
T1 sequence (looked up): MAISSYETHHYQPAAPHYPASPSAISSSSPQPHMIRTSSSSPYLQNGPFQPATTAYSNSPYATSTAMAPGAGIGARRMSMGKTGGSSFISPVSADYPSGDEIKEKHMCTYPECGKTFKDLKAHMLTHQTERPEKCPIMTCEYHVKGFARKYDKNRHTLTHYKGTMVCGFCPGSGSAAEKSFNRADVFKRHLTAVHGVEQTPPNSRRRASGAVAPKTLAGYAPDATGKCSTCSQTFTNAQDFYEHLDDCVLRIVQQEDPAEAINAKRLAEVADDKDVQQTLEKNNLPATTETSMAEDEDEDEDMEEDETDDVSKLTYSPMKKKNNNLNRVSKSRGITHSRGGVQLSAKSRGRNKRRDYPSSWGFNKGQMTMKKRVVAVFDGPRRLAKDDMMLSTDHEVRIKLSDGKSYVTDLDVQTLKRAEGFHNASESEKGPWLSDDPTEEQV
The experiment in a line: EMSA. The following applies: 50 µM zinc sulfate, retardation occurs upon addition of 1.6 µM Rme1, 20 mM Tris-HCl pH 7.4, 50 mM KCl, 5% glycerol, 1 mM DTT, 50 µg/mL BSA, 100 ng probe, 25 min at room temperature, 6% native PAGE at 4 °C, recombinant protein, residues 83-525, protein details: GST (pGEX-4T-1, N-terminal by vector), label: none (SYBR Gold stain), probe letters rebuilt from the primers and the genome. In general terms: A gel shift assay detects complexes by their altered migration in electrophoresis.

Protein sequences can lack the tags named with them.

“TTCGATTCGTAGCATGGGCGCCAGGGAGGGCAAGTGCGGGAGTACGTGGTGTGCGTACCGTGCTGTACCTGGGAGGGCGGTACTTGTGGGCAAGTACCCCGACCGCACCACCGCGAAGCACATGCTGCGGTCGCTACACGGGGCGGTAAATCAGGGGCGTCACGCAGGGCTTAGGCAGCGACATTTGGGGGTGCAACAGCGCTGCATGCCACCGTCCAGTGGCTCGATGGCGCGATGGGGCGCTGGAAGGACGAGGGGGGCAGAGGGACGGGACACGTCGCCAGGGCTCAGAGACGGCCAGAAAGGGGGCACGGGGTACTTGTCGGCTCTCAGACGGTTGTACCTCGC (double strand) [Pcre1 probe]”: the binding result is given as “binds”.
